Results are given in words; binding and its absence hold for the method and conditions named. Binding seen in cells or lysates may run through a third protein. Here binding means that the protein was enriched with, or labelled near, the bait; the list need not be complete.

Sequences of proteins named here, by UniProt entry; tags and fusion partners are left off.
UniProt P05556: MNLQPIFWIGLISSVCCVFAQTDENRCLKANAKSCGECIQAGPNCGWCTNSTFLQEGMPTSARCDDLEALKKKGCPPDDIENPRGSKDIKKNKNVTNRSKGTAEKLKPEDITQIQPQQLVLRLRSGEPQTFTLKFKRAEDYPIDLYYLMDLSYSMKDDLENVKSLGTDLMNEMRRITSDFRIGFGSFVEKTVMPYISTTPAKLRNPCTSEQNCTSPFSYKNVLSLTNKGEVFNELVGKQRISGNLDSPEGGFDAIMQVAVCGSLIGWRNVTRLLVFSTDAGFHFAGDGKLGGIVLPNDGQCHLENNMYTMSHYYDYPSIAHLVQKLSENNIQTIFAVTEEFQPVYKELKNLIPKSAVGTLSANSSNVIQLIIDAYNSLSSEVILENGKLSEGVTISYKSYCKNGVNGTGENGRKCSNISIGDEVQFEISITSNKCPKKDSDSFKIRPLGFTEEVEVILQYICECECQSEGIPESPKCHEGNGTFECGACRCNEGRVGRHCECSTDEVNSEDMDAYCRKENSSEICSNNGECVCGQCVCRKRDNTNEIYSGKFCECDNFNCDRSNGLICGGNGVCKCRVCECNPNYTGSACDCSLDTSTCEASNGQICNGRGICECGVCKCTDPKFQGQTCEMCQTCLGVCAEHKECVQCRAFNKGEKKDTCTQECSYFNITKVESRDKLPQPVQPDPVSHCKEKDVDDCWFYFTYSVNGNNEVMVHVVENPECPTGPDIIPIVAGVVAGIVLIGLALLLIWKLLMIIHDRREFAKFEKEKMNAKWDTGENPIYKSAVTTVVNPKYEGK
UniProt Q13200: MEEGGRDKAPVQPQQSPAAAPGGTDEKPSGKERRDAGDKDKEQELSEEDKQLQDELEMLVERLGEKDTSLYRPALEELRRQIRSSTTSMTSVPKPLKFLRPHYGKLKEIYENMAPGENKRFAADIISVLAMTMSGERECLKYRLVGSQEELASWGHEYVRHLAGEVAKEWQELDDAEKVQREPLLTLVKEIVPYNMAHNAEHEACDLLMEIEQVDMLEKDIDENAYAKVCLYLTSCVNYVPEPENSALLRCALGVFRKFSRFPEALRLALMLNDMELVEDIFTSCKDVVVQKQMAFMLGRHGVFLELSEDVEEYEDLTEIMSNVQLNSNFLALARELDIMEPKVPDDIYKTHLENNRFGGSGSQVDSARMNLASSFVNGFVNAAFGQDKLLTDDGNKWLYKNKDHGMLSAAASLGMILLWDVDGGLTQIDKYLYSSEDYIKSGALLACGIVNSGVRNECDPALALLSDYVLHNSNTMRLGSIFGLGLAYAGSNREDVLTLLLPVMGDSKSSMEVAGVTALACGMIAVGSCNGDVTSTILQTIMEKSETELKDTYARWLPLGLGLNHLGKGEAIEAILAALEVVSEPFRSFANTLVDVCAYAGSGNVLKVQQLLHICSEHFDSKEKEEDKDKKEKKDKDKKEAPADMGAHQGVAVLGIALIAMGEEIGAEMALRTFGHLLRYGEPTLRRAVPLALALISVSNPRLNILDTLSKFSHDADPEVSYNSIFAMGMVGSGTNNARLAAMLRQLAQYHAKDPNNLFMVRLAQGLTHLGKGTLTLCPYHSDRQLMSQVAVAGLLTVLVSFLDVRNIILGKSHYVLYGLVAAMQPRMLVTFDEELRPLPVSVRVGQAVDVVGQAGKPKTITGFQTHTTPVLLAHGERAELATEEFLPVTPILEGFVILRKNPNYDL

In the assay the target is integrin β1 chain (human (endogenous in Hep2)) (UniProt P05556). Kind of assay: affinity purification with mass spectrometry; Hep2 cells stimulated with GAS-FbaA, S.a-FnBpA or L.m-FbpA in the presence of Fn protein; Co-IP with anti-integrin β1 mAb; hits are the intersection of the three FnBp groups minus the proteins of the Fn-alone group.

In the case of PSMD2 (from UniProt Q13200 1-908), the binding entry is “binds”.

B1: S100A8 (protein, UniProt P05109 1-93)
chain: MLTELEKALNSIIDVYHKYSLIKGNFHAVYRDDLKKLLETECPQYIRKKGADVWFKELDINTDGAVNFQEFLILVIKMGVAAHKKSHEESHKE
Turning to B1, the binding entry is on record as “binds”.

The values above are taken from article PMC10803403.
